Measurements reported in article PMC6199744, “Development of Chemical Proteomics for the Folateome and Analysis of the Kinetoplastid Folateome” (ACS Infectious Diseases, 2018).
Further values from the same series stand in other lists.

Test system: L. major lysate proteins
Test: Multitargeted bead mixture chemoproteomics, single concentration competition, proteome-wide
Format: binding
Settings: for fold change: vehicle control = 1

`CCCCCCOc1ccc(Cc2cnc(N)nc2N)cc1` [compound 1] showed a fold change (LMJF.29.2200 GTP-BINDING PROTEIN, PUTATIVE) of 0.9, a fold change (LMJF.29.2360 ASPARTYL AMINOPEPTIDASE, PUTATIVE) of 0.78 and a fold change (LMJF.30.0580 HYPOTHETICAL PROTEIN, CONSERVED) of 0.93. For the same compound, the fold change (LMJF.30.1040 HYPOTHETICAL PROTEIN, CONSERVED) was 0.78, the fold change (LMJF.30.3380 PAS-DOMAIN CONTAINING PHOSPHOGLYCERATE KINASE, PUTATIVE) was 0.91 and the fold change (LMJF.30.3530 HYPOTHETICAL PROTEIN, CONSERVED) was 0.66. It also gave a fold change (LMJF.30.3570 ZINC FINGER-DOMAIN PROTEIN, PUTATIVE) of 1.05, a fold change (LMJF.31.1110 HY[…], CONSERVED) of 0.94 and a fold change (LMJF.31.2640 2-OXOGLUTARATE DEHYDROGENASE, E3 COMPONENT, […]-LIKE PROTEIN) of 0.7. For the same compound, the fold change (LMJF.32.0450 AF467951_1 ribosomal protein S2) was 1.47, the fold change (LMJF.33.3270 DELTA-12 FATTY ACID DESATURASE) was 1.09 and the fold change (LMJF.34.0010 HY[…], CONSERVED) was 1.07. The fold change (LMJF.34.2610 ATP-DEPENDENT DNA HELICASE, PUTATIVE) was 0.72, the fold change (LMJF.34.4620 HYPOTHETICAL PROTEIN, CONSERVED) was 0.8 and the fold change (LMJF.35.2150 HYPOTHETICAL PROTEIN, CONSERVED) was 0.93. The fold change (LMJF.35.2980 CHAPERONE PROTEIN DNAJ, PUTATIVE) was 0.6, the fold change (LMJF.35.4300 HYPOTHETICAL PROTEIN, CONSERVED) was 0.79 and the fold change (LMJF.35.4880 HYPOTHETICAL PROTEIN, CONSERVED) was 0.8. The fold change (LMJF.36.0250 EIF3-INTERACTING PROTEIN-LIKE PROTEIN) was 0.93, the fold change (LMJF.36.1940 INOSINE-GUANOSINE TRANSPORTER) was 0.95 and the fold change (LMJF.36.6980 EUKARYOTIC TRANSLATION INITIATION FACTOR 3 SUBUNIT 8, PUTATIVE) was 0.86. It also gave a fold change (protein AF312586_1 IRON […] B1 (AF312583_1 iron […] B2)) of 1.01, a fold change (protein CLM00008612.1 UNNAMED PROTEIN PRODUCT) of 1.49 and a fold change (protein LINJ.01.0790 […] 4A, PUTATIVE) of 0.85. For the same compound, the fold change (protein LINJ.03.0240 RIBOSOMAL PROTEIN L38, PUTATIVE) was 1.14, the “fold change vs vehicle control” value (protein LINJ.04.0630 HY[…], CONSERVED) was 1.09 and the fold change (protein LINJ.05.0070 DYNEIN LIGHT CHAIN, PUTATIVE) was 0.96. For the same compound, the fold change (protein LINJ.07.0210 CYTOCHROME C1, HEME PROTEIN, MITOCHONDRIAL PRECURSOR, PUTATIVE) was 0.88, the “fold change vs vehicle control” value (protein LINJ.08.1020 STRESS-INDUCED PROTEIN STI1) was 1.03 and the fold change (protein LINJ.16.1510 PARAFLAGELLAR ROD PROTEIN 2C) was 0.92. For the same compound, the fold change (protein LINJ.19.0140 PROTEIN KINASE, PUTATIVE,MITOGEN-ACTIVATED PROTEIN KINASE, PUTATIVE) was 1.32, the fold change (protein LINJ.20.0630 CYTIDINE TR[…], PUTATIVE) was 1.05 and the fold change (protein LINJ.23.0860 3-KETOACYL-COA THIOLASE, PUTATIVE) was 1.05. For the same compound, the fold change (protein LINJ.24.2300 60S RIBOSOMAL PROTEIN L12, PUTATIVE) was 1.22, the fold change (protein LINJ.25.1460 GTP-BINDING PROTEIN, PUTATIVE) was 1.06 and the fold change (protein LINJ.25.2230 SUCCINYL-COA […] SUBUNIT, PUTATIVE) was 1.11. The fold change (protein LINJ.26.0590 10 KDA HEAT SHOCK PROTEIN, PUTATIVE) was 0.86, the fold change (protein LINJ.26.0840 40S RIBOSOMAL PROTEIN S16, PUTATIVE) was 1.22 and the fold change (protein LINJ.28.1310 GLUCOSE-REGULATED PROTEIN 78, PUTATIVE) was 1.01. The fold change (protein LINJ.28.1850 […]-ATP-ASE SUBUNIT 2, PUTATIVE) was 1.15, the fold change (protein LINJ.28.2280 DYNEIN LIGHT CHAIN LC6, FLAGELLAR OUTER ARM, PUTATIVE) was 0.97 and the fold change (protein LINJ.31.0710 HY[…], CONSERVED) was 1.16. For the same compound, the fold change (protein LINJ.32.0240 DYNEIN LIGHT CHAIN, FLAGELLAR OUTER ARM, PUTATIVE) was 1.26, the “fold change vs vehicle control” value (protein LINJ.32.2960 PROTEASOME REGULATORY NON-ATP-ASE SUBUNIT, PUTATIVE) was 0.88 and the fold change (protein LINJ.32.3230 PROTEIN PHOSPHATASE 2A CATALYTIC SUBUNIT, PUTATIVE) was 1.15. The fold change (protein LINJ.33.0350 HEAT SHOCK PROTEIN 83-1) was 1.1, the fold change (protein LINJ.35.2250 kinetoplastid membrane protein 11) was 0.93 and the fold change (protein LINJ.35.3840 60S RIBOSOMAL PROTEIN L23, PUTATIVE) was 1.19. For the same compound, the “fold change vs vehicle control” value (protein LINJ.35.4200 POLY(A)-BINDING PROTEIN 2,POLY(A) BINDING PROTEIN, PUTATIVE) was 1.02, the fold change (protein LMJF.01.0320 POLY(A) EXPORT PROTEIN, PUTATIVE) was 1.12 and the fold change (protein LMJF.01.0650 MIT[…] BETA SUBUNIT, PUTATIVE) was 0.98. It also gave a fold change (protein LMJF.02.0450 VOLTAGE-DEPENDENT ANION-SELECTIVE CHANNEL, PUTATIVE) of 1.01, a fold change (protein LMJF.03.0200 DELTA-1-PYRROLINE-5-CARBOXYLATE DEHYDROGENASE, PUTATIVE) of 0.9 and a fold change (protein LMJF.03.0980 ELONGATION INITIATION FACTOR 2 ALPHA SUBUNIT, PUTATIVE) of 0.99. For the same compound, the “fold change vs vehicle control” value (protein LMJF.04.1230 actin) was 1.08, the “fold change vs vehicle control” value (protein LMJF.07.0220 HYPOTHETICAL PROTEIN, CONSERVED) was 0.79 and the fold change (protein LMJF.07.0270 […] DEACETYLASE-LIKE PROTEIN) was 0.95. For the same compound, the fold change (protein LMJF.07.0340 ATP-DEPENDENT DEAD/H RNA HELICASE, PUTATIVE) was 1.01, the fold change (protein LMJF.07.0640 HYPOTHETICAL PROTEIN, CONSERVED) was 0.93 and the fold change (protein LMJF.07.1000 RNA BINDING PROTEIN-LIKE PROTEIN) was 1.23. For the same compound, the fold change (protein LMJF.07.1140 PEPTIDE […] REDUCTASE-LIKE) was 1.13, the fold change (protein LMJF.08.0320 MITOCHONDRIAL ASSOCIATED RIBONUCLEASE, PUTATIVE) was 0.61 and the fold change (protein LMJF.09.0970 ELONGATION FACTOR-1 GAMMA) was 0.95. It also gave a fold change (protein LMJF.10.0210 NUCLEOLAR PROTEIN, PUTATIVE) of 1.03 and a fold change (protein LMJF.11.0220 PTERIN-4-ALPHA-CARBINOLAMINE DEHYDRATASE, PUTATIVE) of 1.07.
